Where a sequence shows no end group, the ends are not given.
Assay: general procedure: Fmoc solid-phase peptide synthesis; Fmoc-His(Trt)-Wang resin, H-His(Trt)-2Cl-Trt resin, Fmoc-Asp(OtBu)-Wang resin, Fmoc-Ile-Wang resin, Fmoc-Ser(tBu)-Wang r
Settings: whole synthesis

Row | Sequence | crude purity (method not given) | final purity (method not given) | also measured
1 | YMFLKAESKIMFATLQRSS | 38% | 95.9% | 
2 | TLQRSSLWCL |  |  | final purity (method not given) (scale 5 umol): 98%
3 | VLWTTPPLQH |  |  | final purity (method not given) (scale 5 umol): 85%
4 | KKKKKAESKIMFATLQRSSLWCL | 28% | 82.3% | 
5 | KKKKKPKRDGYMFLKAESKIMFAT | 57% | 85.7% | 
6 | KAESKIMFATLQRSSLWCL | 32% | 96.6% | 
7 | KPKRDGYMFLKAESKI | 69% | 98.4% | 
8 | KPKRDGYMFLKAESKIMFATLQRSSLWCL | 42% | 87% | 
9 | LHFCRSSIMKPKRDGYMFLKAESKI | 37% |  | 
10 | DLHFCRSSIMKPKRDGYMFLKAESK |  | 88% | 
11 | DGYMFLKAESKIMFAT | 39% | 91.6% | 
12 | FLKAESKIMFATLQR | 35% | 84% | 
13 | VLPEPHLAL |  |  | final purity (method not given) (scale 5 umol): 100%
14 | MFATLQRSSLWCLC | 57% | 90% | 
15 | APAIQPVLWTTPPLQHGHRHGLEPCS |  | 90% | 
16 | EPHLALQPL |  |  | final purity (method not given) (scale 5 umol): 81%
17 | KKKKMFATLQRSSLWCLCSNH | 39% | 92.7% | 
18 | KPKRDGYMFLKAESKIMFAT | 41% | 97.6% | 
19 | ESKIMFATLQRSSL | 75% | 97% | 
20 | KKKKKIMFATLQRSSLWCLCSNH | 49% | 75.7% | 
21 | HADHAHADAPAIQPVLWTTPPLQH |  | 94% | 
22 | GPPARVPAV |  |  | final purity (method not given) (scale 5 umol): 81%

Row | Sequence | crude purity (method not given) | final purity (method not given) | also measured
23 | FLKAESKIMFATLQRSSLWCL | 66% | 86% | 
24 | FLKAESKIMFATLQRS | 62% | 95.0% | 
25 | TLQRSSLWCLCSNH | 60% | 99% | 
26 | GPPARVPAVPFDLHFCRSSIMKPKRD | 51% | 99.5% | 
27 | KPKRDGYMFL |  |  | final purity (method not given) (scale 5 umol): 71%
28 | YMFLKAESKI |  | 85% | final purity (method not given) (scale 5 umol): 100%
29 | ESKIMFATLQRSSLWC | 41% | 91.0% | 
30 | KPKRDGYMFLKAESKIMFATLQRSSLWCLCSNH | 37% |  | final purity (method not given) (run 1): 96%; final purity (method not given) (run 2): 95% purity
31 | DLHFCRSSIMKPKRDGYMFLKAESKIMFATLQRSSLWCL | 40% |  | 
32 | YMFLKAESKIMFATLQRSSLWCL | 37% |  | 
33 | PGRPLQTHVLPEPHLALQPLQPHADHA |  | 95% | 
34 | MFLKAESKI |  |  | final purity (method not given) (scale 5 umol): 86%
35 | KKKKYMFLKAESKIMFATLQRSS | 45% |  | 
36 | MFATLQRSSLWCLCSNH | 47% | 98.7% | 
37 | PPARVPAVPFDLHFCRSSIMKPKRD |  | 93% | 
38 | KPKRDGYMFLKAESKIMFATLQR | 53% | 92.6% | 
39 | EPHLALQPLQPHADHAHADAPAIQPV |  | 92% | 
40 | KIMFATLQR |  |  | final purity (method not given) (scale 5 umol): 71%
41 | KIMFATLQRSSLWCLCSNH | 31% | 68.0% | 
42 | KAESKIMFATLQRSSLWCLCSNH |  | 100% | 
43 | KPKRDGYMF |  |  | final purity (method not given) (scale 5 umol): 73%
